{"source": "PubChem BioAssay AID504786 (Drosophila RNAi Screening Center, 2011)", "aim": "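Fly genes required for HIF-dependent transcription when hypoxia is mimicked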 (primary screen)", "system": "Drosophila S2 cells with a stable HIF luciferase reporter", "reagent": "long dsRNA against Drosophila genes, about 0.2 µg dsRNA per well of a 384-well plate", "duration": "three days of knock-down, then 20 h of DFO before reading", "conditions": "desferrioxamine (DFO) at 100 µM, an iron chelator that mimics hypoxia, for 20 h", "detection": "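Firefly luciferase driven by the mouse ldh-a hypoxia-response element, measured after 20 h of 100 µM DFO; z-scores per plate, higher means more signal lost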", "scale": "z-score: higher = stronger loss of HIF reporter signal", "note": "The screen tested about 21,000 reagents; below is an unselected part of those that have a named target and a result. 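Primary screen; positive scores mean lost reporter signal, so the sign may be inverted from the usual convention.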 The numbers tell different reagents against one gene apart. Names joined by + are all predicted targets of the reagent. Further read-outs or replicates are left out here."}
{"Target gene": "kri", "dsRNA no.": 1, "z-score, replicate 1": -0.2}
{"Target gene": "CG6726", "dsRNA no.": 1, "z-score, replicate 1": -0.3}
{"Target gene": "ppk24", "dsRNA no.": 1, "z-score, replicate 1": 0}
{"Target gene": "wb", "dsRNA no.": 1, "z-score, replicate 1": 2.9}
{"Target gene": "wb", "dsRNA no.": 2, "z-score, replicate 1": -0.3}
{"Target gene": "morgue", "dsRNA no.": 1, "z-score, replicate 1": -0.2}
{"Target gene": "CG3792", "dsRNA no.": 1, "z-score, replicate 1": -0.1}
{"Target gene": "fru", "dsRNA no.": 1, "z-score, replicate 1": 3.4}
{"Target gene": "fru", "dsRNA no.": 2, "z-score, replicate 1": 0.2}
{"Target gene": "fru", "dsRNA no.": 3, "z-score, replicate 1": 0.5}
{"Target gene": "CG31784", "dsRNA no.": 1, "z-score, replicate 1": -0.2}
{"Target gene": "CG17110", "dsRNA no.": 1, "z-score, replicate 1": -0.4}
{"Target gene": "Semp1", "dsRNA no.": 1, "z-score, replicate 1": -0.3}
{"Target gene": "Srp54", "dsRNA no.": 1, "z-score, replicate 1": 1.3}
{"Target gene": "Or85d", "dsRNA no.": 1, "z-score, replicate 1": -0.4}
{"Target gene": "wa-cup", "dsRNA no.": 1, "z-score, replicate 1": -0.4}
{"Target gene": "CanB", "dsRNA no.": 1, "z-score, replicate 1": -0.2}
{"Target gene": "Gr64f", "dsRNA no.": 1, "z-score, replicate 1": -0.1}
{"Target gene": "CG33337", "dsRNA no.": 1, "z-score, replicate 1": -0.2}
{"Target gene": "stnB + stnA", "dsRNA no.": 1, "z-score, replicate 1": 0.2}
{"Target gene": "stnB + stnA", "dsRNA no.": 2, "z-score, replicate 1": 0.1}
{"Target gene": "stnB + stnA", "dsRNA no.": 3, "z-score, replicate 1": -0.3}
{"Target gene": "CG15308", "dsRNA no.": 1, "z-score, replicate 1": -0.3}
{"Target gene": "CG17233", "dsRNA no.": 1, "z-score, replicate 1": 0.4}
{"Target gene": "cathD", "dsRNA no.": 1, "z-score, replicate 1": -0.2}
{"Target gene": "CG32628 (retired record)", "dsRNA no.": 1, "z-score, replicate 1": -0.2}
{"Target gene": "CCT1", "dsRNA no.": 1, "z-score, replicate 1": 2.6}
{"Target gene": "CG7606", "dsRNA no.": 1, "z-score, replicate 1": -0.3}
{"Target gene": "CG7606", "dsRNA no.": 2, "z-score, replicate 1": -0.2}
{"Target gene": "beat-Ib", "dsRNA no.": 1, "z-score, replicate 1": -0.3}
{"Target gene": "nkd", "dsRNA no.": 1, "z-score, replicate 1": -0.2}
{"Target gene": "PolrMT", "dsRNA no.": 1, "z-score, replicate 1": 2.4}
{"Target gene": "Hr38", "dsRNA no.": 1, "z-score, replicate 1": 0}
{"Target gene": "CG14391", "dsRNA no.": 1, "z-score, replicate 1": -0.3}
{"Target gene": "Mtp", "dsRNA no.": 1, "z-score, replicate 1": -0.3}
{"Target gene": "CG40282 (retired record)", "dsRNA no.": 1, "z-score, replicate 1": -0.1}
{"Target gene": "ed", "dsRNA no.": 1, "z-score, replicate 1": -0.3}
{"Target gene": "ed", "dsRNA no.": 2, "z-score, replicate 1": -0.2}
{"Target gene": "ed", "dsRNA no.": 3, "z-score, replicate 1": -0.2}
{"Target gene": "ed", "dsRNA no.": 4, "z-score, replicate 1": -0.2}
